Values quoted from earlier work in US20170112937A1, “METHOD FOR PRODUCING AQUEOUS OPHTHALMIC COMPOSITION, AND AQUEOUS OPHTHALMIC COMPOSITION” (FUJIFILM CORPORATION, priority 2014, published 2017).
Some entries share one result that the patent states for a list of compounds.

conditions: in 1 g of 25° C. water at any pH within a neutral range of from 6.0 to 8.0

Solubility, ≤ 10 mg:
CCN[C@H]1CN(CCCOC)S(=O)(=O)c2sc(S(N)(=O)=O)cc21 [Brinzolamide]
CC(=O)Nc1nnc(S(N)(=O)=O)s1 [acetazolamide]
CCN[C@H]1C[C@H](C)S(=O)(=O)c2sc(S(N)(=O)=O)cc21 [dorzolamide]
